The text below walks through data of patent publication US20190046658A1.

The target in this assay is T1, soluble truncated uPARAP protein containing the first 3 N-terminal domains of human uPARAP (CysR, FN-II and CTLD-1) (human) (UniProt Q9UBG0).
T1 sequence: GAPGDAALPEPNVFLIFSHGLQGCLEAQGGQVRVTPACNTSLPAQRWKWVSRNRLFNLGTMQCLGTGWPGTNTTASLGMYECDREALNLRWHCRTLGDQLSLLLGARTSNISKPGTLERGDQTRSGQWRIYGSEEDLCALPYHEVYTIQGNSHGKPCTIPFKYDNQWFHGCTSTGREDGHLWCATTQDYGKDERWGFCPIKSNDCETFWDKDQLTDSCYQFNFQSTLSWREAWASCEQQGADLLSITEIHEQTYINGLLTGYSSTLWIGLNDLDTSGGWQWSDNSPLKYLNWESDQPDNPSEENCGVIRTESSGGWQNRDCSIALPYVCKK
Nature of the assay: ELISA, truncated human uPARAP (3 N-terminal domains) coated at 25 ng/well. A general note: An ELISA detects its analyte on a solid surface through an enzyme-linked reagent.

No constants are given. Whether binding was seen depends on the method and setting. Some binding calls cover weakened binding; strength is not graded here.

B1: mAb 2h9 (mouse monoclonal IgG1κ antibody clone 2.h.9:F12, produced by hybridoma cell culture) (antibody, V domains shown)
VH: QVQLQQPGTELVRPGLSVKLSCKASGYTFTSYWMNWVKQRPGQGLEWIGMIHPSNDEKRINQKFKDKATLTVDKFSSTVYMQVSSPTSEDSAVYYCARGGGDYVGDYALDFWGQGTSVTVSS
VL: DIQMTQSPASQSASLGESVTITCLASQTIGTWLAWYQQKPGKSPQLLIYAATTLTDGVPSRFSGAGSGTKFSLKISSLQAEDFASYFCQEFFSTPFTFGSGTKLELKR
As to B1, the binding entry is “binds”.

B2: mAb 2h9 subjected to the reduction procedure of conjugation (no drug attached) (antibody, mouse IgG1, kappa, V domains shown)
VH: QVQLQQPGTELVRPGLSVKLSCKASGYTFTSYWMNWVKQRPGQGLEWIGMIHPSNDEKRINQKFKDKATLTVDKFSSTVYMQVSSPTSEDSAVYYCARGGGDYVGDYALDFWGQGTSVTVSS
VL: DIQMTQSPASQSASLGESVTITCLASQTIGTWLAWYQQKPGKSPQLLIYAATTLTDGVPSRFSGAGSGTKFSLKISSLQAEDFASYFCQEFFSTPFTFGSGTKLELKR
modifications: interchain disulphides partly reduced (10 mM DTT, 10 min, 37 C)
Turning to B2, the binding result is on record as “binds”.
